Part of at least one peptide drawing is inferred or uncertain, most often the ends.
Test system: peripheral terminals of sensory nerves of the isolated rat trachea
Test: Electrical field stimulation-induced CGRP release from sensory nerve terminals of the isolated rat trachea (RIA)
Conditions: 500 nM; total CGRP release in stimulated and poststimulated fractions together vs basal outflow; n=5; mean with spread
Experimental: • Figure 1 provides a graphical representation of the effect of some compounds of the present invention on electrical field stimulation (EFS; 40 V, 0.1 ms, 10 Hz for 120 s; 1200 pulses)-induced calcitonin gene-related (CGRP) release from sensory fibres of the isolated rat tracheae. Each column represents the mean±s.e.m. CGRP concentration measured in the incubation medium of the prestimulated, stimulated and poststimulated 8-minute fractions of n = 5 experiments (5 x 2 tracheae/group). […]
The activities of the above described synthetic somatostatin analogs were determined by means of an in vitro pharmacological assay on the release of the sensory neuropeptide CGRP from the peripheral terminals of sensory nerves of the isolated rat trachea. […]
Experiments were performed on male Wistar rats bred and kept in the Laboratory Animal Centre of the University of Pécs under standard pathogen free conditions at 24-25 °C and provided with standard rat chow and water ad libitum. […] Concentration of CGRP was determined from 200 µL samples of the incubation medium by a selective and specific radioimmunoassay (RIA) technique as described previously in detail (Nemeth et al., 1996; Helyes et al., 1997; Nemeth et al., 1998; Nemeth et al., 1999). Peptide outflow was expressed as the released amount per wet tissue weight. […]

With `CC(C)[C@@H]1NC(=O)[C@H](CCCCN)NC(=O)[C@@H](Cc2c[nH]c3ccccc23)NC(=O)[C@H](Cc2ccc(O)cc2)NC(=O)[C@H](C)N(C)C(=O)[C@H](Cc2ccccc2)NC1=O` [MK-678-0, c(-MeAYwKVF-)] the “CGRP release in % compared to the prestimulated fraction” value was 293,96 ± 33,12%.

From patent EP2177533A1, “Multiple N-methylated cyclic hexapeptides for treatment of neurogenic inflammation” (TU München, priority 2008, dated 2010)
